Some of the results follow.

The chains behind the UniProt entries cited, without tags or fusion partners. Where a name states a change or a piece, a line headed by the entry shows the natural chain unless it says otherwise.
UniProt Q9BTE1, whole entry, looked up: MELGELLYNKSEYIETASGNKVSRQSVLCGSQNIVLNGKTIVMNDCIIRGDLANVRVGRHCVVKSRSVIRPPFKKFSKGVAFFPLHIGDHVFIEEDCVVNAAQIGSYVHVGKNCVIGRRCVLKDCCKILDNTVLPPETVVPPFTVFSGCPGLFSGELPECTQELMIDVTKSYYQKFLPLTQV
UniProt Q96C57: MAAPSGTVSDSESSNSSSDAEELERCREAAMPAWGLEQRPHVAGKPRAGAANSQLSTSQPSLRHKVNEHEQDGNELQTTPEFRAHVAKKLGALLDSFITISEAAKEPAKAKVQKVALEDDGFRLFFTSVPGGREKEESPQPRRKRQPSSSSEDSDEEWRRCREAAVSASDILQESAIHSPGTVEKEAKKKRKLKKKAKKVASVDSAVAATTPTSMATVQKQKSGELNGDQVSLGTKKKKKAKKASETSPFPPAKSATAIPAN
UniProt P35221: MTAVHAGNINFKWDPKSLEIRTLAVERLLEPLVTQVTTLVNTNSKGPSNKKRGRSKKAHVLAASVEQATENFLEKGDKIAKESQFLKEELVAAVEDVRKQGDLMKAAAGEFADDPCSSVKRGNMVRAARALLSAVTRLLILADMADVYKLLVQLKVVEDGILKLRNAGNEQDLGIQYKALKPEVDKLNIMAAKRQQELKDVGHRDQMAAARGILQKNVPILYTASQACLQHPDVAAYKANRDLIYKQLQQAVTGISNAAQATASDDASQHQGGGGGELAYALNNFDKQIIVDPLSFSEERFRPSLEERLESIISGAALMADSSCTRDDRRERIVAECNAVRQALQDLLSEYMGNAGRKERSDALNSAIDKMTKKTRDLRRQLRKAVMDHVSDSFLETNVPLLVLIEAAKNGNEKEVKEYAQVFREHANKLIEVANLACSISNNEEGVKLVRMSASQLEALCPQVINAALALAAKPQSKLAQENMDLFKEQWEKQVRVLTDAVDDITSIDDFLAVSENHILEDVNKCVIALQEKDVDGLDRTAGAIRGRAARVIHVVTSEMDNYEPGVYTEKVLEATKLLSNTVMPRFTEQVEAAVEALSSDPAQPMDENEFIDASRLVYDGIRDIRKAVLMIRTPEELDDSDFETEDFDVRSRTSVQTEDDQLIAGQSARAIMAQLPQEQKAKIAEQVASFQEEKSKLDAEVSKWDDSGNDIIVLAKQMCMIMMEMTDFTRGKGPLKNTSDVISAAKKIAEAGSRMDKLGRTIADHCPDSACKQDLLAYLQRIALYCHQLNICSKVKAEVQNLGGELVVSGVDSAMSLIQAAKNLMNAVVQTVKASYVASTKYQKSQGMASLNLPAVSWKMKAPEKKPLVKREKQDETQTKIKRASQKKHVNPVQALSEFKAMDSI
UniProt P50461: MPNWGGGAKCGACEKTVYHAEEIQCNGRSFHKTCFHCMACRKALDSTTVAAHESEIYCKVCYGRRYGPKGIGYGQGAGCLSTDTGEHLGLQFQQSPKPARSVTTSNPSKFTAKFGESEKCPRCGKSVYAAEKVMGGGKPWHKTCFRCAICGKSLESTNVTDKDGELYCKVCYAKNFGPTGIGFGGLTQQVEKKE
UniProt Q8TB03: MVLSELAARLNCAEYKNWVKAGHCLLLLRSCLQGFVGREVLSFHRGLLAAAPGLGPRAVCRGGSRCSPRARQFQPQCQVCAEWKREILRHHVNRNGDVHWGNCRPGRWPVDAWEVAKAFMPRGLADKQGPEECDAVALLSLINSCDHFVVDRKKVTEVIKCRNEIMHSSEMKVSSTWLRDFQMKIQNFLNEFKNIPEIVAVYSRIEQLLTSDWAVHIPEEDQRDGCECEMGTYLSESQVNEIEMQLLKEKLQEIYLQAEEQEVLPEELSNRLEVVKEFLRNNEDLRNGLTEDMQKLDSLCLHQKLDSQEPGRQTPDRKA
UniProt Q8WUE5: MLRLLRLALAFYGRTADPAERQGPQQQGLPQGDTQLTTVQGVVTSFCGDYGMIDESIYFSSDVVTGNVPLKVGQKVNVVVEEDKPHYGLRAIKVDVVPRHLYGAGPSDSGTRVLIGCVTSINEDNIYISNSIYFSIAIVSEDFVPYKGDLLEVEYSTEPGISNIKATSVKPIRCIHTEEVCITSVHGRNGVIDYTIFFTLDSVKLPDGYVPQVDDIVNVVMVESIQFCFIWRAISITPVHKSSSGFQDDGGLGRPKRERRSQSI
UniProt P32929, whole entry, looked up: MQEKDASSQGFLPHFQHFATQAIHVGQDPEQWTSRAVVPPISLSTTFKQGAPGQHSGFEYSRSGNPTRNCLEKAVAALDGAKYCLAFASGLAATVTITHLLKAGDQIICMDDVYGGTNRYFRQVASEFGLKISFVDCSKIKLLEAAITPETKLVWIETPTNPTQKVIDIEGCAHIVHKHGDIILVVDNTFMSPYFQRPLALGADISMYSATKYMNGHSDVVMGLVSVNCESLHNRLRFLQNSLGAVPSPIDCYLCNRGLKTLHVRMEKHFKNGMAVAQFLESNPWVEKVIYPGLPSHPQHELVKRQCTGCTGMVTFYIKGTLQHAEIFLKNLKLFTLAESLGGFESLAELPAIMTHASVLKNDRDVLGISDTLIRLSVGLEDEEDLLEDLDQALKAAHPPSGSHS
UniProt Q9NTM9: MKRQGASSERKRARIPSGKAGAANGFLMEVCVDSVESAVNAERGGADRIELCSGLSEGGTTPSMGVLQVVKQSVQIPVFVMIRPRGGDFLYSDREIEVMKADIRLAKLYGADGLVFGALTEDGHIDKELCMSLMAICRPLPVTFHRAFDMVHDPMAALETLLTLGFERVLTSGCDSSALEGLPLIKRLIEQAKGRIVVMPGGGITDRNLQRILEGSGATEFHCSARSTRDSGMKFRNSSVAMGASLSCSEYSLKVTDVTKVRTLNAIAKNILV
UniProt Q9Y4B6: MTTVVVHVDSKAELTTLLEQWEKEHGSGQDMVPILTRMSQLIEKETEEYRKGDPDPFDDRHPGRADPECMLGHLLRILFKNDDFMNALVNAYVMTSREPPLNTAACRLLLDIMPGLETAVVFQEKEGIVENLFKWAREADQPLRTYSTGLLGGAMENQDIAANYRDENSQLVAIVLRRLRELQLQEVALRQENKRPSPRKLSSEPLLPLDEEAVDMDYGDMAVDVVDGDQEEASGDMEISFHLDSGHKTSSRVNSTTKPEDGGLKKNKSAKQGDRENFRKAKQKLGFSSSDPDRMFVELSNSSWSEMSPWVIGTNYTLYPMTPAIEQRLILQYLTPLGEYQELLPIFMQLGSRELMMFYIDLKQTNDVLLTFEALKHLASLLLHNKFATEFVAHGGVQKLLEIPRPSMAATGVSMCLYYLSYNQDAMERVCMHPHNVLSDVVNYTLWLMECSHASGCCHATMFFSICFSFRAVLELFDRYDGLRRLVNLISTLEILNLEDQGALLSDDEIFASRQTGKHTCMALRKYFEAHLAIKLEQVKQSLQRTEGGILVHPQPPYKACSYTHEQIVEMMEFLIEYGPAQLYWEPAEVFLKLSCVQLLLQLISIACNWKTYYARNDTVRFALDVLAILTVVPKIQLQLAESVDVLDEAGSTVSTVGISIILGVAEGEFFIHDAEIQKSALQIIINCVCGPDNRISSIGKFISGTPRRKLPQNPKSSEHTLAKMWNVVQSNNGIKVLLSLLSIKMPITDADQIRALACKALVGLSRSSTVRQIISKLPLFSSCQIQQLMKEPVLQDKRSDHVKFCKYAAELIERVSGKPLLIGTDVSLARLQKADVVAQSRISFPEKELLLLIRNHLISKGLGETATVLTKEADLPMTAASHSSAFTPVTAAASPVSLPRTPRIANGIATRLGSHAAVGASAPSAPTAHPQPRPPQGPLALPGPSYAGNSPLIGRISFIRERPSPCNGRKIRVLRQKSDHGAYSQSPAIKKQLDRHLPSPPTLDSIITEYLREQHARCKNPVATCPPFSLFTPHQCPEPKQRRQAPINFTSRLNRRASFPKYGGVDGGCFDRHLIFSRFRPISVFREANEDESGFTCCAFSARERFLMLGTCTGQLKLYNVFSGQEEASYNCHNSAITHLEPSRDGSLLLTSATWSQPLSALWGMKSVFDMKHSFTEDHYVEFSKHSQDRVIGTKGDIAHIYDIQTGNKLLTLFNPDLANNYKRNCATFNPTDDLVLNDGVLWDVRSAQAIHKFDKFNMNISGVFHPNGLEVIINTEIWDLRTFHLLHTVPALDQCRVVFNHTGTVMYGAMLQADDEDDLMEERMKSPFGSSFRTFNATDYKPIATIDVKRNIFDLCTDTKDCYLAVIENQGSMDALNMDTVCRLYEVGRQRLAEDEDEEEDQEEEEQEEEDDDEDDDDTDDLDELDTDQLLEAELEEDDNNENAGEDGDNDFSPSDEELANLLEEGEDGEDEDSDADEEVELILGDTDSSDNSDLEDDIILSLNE
UniProt Q9UER7, whole entry, looked up: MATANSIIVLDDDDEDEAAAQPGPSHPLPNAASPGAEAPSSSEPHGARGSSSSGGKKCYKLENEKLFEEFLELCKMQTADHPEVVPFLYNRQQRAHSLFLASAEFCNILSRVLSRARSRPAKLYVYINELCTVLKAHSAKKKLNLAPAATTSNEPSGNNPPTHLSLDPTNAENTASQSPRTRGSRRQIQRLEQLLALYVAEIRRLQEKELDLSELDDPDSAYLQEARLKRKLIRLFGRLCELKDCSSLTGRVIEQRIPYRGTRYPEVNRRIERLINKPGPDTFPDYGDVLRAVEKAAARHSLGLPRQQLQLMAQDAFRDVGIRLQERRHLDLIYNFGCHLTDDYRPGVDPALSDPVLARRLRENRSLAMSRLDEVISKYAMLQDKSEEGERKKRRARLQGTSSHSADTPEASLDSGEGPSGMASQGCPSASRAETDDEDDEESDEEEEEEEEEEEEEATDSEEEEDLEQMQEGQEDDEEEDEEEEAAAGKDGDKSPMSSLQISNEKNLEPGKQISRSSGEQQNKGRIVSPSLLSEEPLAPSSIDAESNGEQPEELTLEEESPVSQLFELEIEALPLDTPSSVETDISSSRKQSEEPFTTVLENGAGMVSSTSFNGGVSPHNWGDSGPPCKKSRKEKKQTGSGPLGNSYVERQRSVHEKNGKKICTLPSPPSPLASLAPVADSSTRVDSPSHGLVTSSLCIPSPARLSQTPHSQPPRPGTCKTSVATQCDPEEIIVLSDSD
UniProt P08574: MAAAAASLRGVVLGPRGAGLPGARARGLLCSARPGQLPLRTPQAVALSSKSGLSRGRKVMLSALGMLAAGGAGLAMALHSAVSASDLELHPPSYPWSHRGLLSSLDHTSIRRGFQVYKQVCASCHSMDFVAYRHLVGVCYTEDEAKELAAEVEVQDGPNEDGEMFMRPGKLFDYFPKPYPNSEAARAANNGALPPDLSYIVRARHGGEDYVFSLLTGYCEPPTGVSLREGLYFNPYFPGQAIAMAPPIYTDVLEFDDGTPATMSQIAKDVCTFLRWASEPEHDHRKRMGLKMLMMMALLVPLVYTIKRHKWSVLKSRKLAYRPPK
UniProt Q13619, whole entry, looked up: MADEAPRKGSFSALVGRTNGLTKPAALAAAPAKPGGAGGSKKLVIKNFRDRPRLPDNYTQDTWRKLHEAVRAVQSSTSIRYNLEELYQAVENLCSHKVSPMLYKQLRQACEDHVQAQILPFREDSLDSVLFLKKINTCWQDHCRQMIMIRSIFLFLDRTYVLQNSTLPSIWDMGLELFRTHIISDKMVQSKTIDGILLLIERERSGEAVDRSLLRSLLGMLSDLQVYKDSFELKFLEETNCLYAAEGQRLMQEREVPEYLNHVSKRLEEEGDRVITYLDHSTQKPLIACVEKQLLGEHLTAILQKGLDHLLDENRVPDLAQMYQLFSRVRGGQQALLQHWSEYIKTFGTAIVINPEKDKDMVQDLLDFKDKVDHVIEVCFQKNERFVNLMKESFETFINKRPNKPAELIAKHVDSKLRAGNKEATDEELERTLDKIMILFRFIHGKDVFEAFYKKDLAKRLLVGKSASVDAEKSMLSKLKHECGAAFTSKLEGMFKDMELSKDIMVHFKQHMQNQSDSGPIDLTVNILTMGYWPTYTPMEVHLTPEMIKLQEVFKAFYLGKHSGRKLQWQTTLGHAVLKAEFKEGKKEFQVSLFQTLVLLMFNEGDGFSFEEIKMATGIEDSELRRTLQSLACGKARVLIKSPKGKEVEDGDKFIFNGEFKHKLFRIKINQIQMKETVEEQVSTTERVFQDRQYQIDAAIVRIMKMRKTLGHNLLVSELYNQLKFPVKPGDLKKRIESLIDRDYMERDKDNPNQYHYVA
UniProt Q92564: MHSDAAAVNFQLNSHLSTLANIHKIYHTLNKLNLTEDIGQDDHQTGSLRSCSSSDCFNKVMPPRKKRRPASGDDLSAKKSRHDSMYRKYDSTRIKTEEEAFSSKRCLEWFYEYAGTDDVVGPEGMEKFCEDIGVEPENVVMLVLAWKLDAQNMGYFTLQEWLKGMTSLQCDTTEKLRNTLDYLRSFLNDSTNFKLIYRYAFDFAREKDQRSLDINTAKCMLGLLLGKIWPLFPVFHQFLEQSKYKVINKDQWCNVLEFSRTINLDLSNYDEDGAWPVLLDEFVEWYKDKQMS
UniProt P61803: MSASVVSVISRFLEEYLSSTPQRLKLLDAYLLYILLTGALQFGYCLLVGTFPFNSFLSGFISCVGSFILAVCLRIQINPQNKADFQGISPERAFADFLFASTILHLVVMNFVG

Compound in one test: O=C(CCCCCCC(=O)Nc1ccccc1)NO [vorinostat]
As to the kind of experiment: log2 fold change, soluble protein after heating vs DMSO (PISA); higher = thermal stabilisation; K562 cells, 10 uM, 30 min; active = over 0.2 and 3.5 SD of the protein, either way, in both replicates (recomputed). Put shortly:
(§1)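 K562 cells at 2×10^6 cells/mL were exposed to 10 μM compound for 30 min, then aliquots were heated for 3 min across 48°C-58°C, pooled, and extracted in PBS containing 0.5% NP-40 at 4°C. The supernatant after 21,000xg for 90 min was taken as soluble protein and measured by TMTpro 16plex LC-MS/MS with channel sums equalised. Thermal stability is reported relative to control samples, with values from duplicates. Fold changes are given on a log2 scale.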
Regarding DCTN5 (UniProt Q9BTE1), the log2 fold change is inactive: 0.003.
On the same count and under the same terms, as for CTTN (UniProt Q14247), the figure is inactive: -0.043; as for CYB561A3 isoform 2 (UniProt Q8NBI2), inactive: -0.254; as for CSTF2T (UniProt Q9H0L4), inactive: 0.016.
Regarding CYHR1 (UniProt E9PJD7), the log2 fold change is inactive: -0.001.
For CUSTOS (UniProt Q96C57), the log2 fold change was inactive: -0.014.
In the case of DCAF4L2 (UniProt Q8NA75), the log2 fold change was inactive: 0.032.
For the target CTNNA1 isoform 2 (UniProt P35221), the log2 fold change was inactive: 0.
Same read-out and setting: then CTCF (UniProt P49711), with inactive: 0.001; and DAGLB (UniProt Q8NCG7), with inactive: 0.056.

Compound in a further test: O=C(CCCCCCNC(=O)c1cnc(N(c2ccccc2)c2ccccc2Cl)nc1)NO [citarinostat]
The description is as above. An outline of the steps:
as §1
As for CWC15 (UniProt Q9P013), the log2 fold change was inactive: -0.079.
Still for that read-out and setting: then CT45A5 (UniProt P0DMU8), with inactive: -0.006; and CT45A10 (UniProt P0DMU9), with inactive: -0.063.
Still for that read-out and setting: then DCP1A (UniProt Q9NPI6), with inactive: 0.077; and CSRP3 (UniProt P50461), with inactive: 0.
Consider CXorf38 (UniProt Q8TB03), for which the log2 fold change is inactive: 0.095.
Same read-out and setting: as for CT55 (UniProt Q8WUE5), the figure is inactive: 0.076; as for CTH (UniProt P32929), inactive: 0.1; as for CUL1 (UniProt Q13616), inactive: 0.03.
The same measure, in the same setting: then CUTC (UniProt Q9NTM9), with inactive: 0.03.
For the target CSRP1 (UniProt P21291), the log2 fold change is inactive: 0.021.
Still for that read-out and setting: then CUL2 isoform 2 (UniProt Q13617), with inactive: 0.032; and DCTN2 isoform 2 (UniProt Q13561), with inactive: 0.043; and DCAF1 (UniProt Q9Y4B6), with inactive: 0.009.
Turning to DAXX (UniProt Q9UER7), the log2 fold change was inactive: 0.075.
The same measure, in the same setting: as for CWC25 (UniProt Q9NXE8), the figure is inactive: 0.19; as for CYC1 (UniProt P08574), inactive: 0.021.
For the target DCTN4 (UniProt Q9UJW0), the log2 fold change was inactive: -0.046.
As for CUL4A (UniProt Q13619), the log2 fold change is inactive: 0.045.
On the same count and under the same terms, as for DCTN5 (UniProt Q9BTE1), the figure is inactive: 0.03.
The same measure, in the same setting: then CTTN (UniProt Q14247), with inactive: 0.003; and CYB561A3 isoform 2 (UniProt Q8NBI2), with inactive: -0.081; and CSTF2T (UniProt Q9H0L4), with inactive: 0.025.
On the same count and under the same terms, then DCAF15 (UniProt Q66K64), with inactive: 0.075; and DCUN1D4 isoform 3 (UniProt Q92564), with inactive: 0.095; and DAD1 (UniProt P61803), with inactive: -0.021.
Consider CYHR1 (UniProt E9PJD7), for which the log2 fold change was inactive: 0.022.
In the case of CUSTOS (UniProt Q96C57), the log2 fold change was inactive: 0.027.
On the same count and under the same terms, as for DCAF4L2 (UniProt Q8NA75), the figure is inactive: 0.209; as for CYSTM1 (UniProt Q9H1C7), inactive: 0.231; as for CTNNA1 isoform 2 (UniProt P35221), inactive: 0.028.
On the same count and under the same terms, then CTCF (UniProt P49711), with inactive: -0.122.
For DAGLB (UniProt Q8NCG7), the log2 fold change is inactive: 0.027.

The record behind these values is the supplement of paper PMC10849652.
